# Assay results reported in publication PMC12723722.
# The chains behind the UniProt entries cited, without tags or fusion partners. Residues count along the entry.
# UniProt Q15910, 340-435 T345D: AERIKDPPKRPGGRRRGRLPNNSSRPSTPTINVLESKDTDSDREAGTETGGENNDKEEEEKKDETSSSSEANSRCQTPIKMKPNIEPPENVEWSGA
# What was measured:
# [1] = target: EZH2 loop TD (phosphomimetic) T345D (UniProt Q15910); assay: EMSA; conditions: small but clear shift; EMSA: LightShift RNA EMSA kit protocol, 1-2 nM refolded RNA, 30 min room temperature, 4 or 6% native PAGE, 0.5x TBE; recombinant protein; protein details: His tag implied (pET22b, HisTrap)
# [2] = target: EZH2 loop TD (phosphomimetic) T345D (UniProt Q15910); assay: MST; conditions: no significant difference from WT, value only in figure; MST: Monolith NT.115, standard treated capillaries, 40% MST power; binding buffer; recombinant protein; protein details: His tag implied (pET22b, HisTrap)
sequence,measurement,setting,value
AAGAAUGGCCUCGCGGAGGCAUGCGUCAUGCUAGCGUGCGGGGUACUCUU [R50],binding result,[1],binds
same,binding result,[2],binds

# For at least one entry, the source does not settle the construct or the ends of the probe.
